From publication PMC12061867
These are yes or no findings as the source states them, for the method shown. In cells and extracts the contact can be indirect. Binding calls can cover weak binding; strength is not graded here.

Protein sequences, listed by entry. Tags and fused reporters are not part of them. Lines headed by an entry give the natural chain unless they say otherwise; changes in a name come on top.
UniProt H0V563: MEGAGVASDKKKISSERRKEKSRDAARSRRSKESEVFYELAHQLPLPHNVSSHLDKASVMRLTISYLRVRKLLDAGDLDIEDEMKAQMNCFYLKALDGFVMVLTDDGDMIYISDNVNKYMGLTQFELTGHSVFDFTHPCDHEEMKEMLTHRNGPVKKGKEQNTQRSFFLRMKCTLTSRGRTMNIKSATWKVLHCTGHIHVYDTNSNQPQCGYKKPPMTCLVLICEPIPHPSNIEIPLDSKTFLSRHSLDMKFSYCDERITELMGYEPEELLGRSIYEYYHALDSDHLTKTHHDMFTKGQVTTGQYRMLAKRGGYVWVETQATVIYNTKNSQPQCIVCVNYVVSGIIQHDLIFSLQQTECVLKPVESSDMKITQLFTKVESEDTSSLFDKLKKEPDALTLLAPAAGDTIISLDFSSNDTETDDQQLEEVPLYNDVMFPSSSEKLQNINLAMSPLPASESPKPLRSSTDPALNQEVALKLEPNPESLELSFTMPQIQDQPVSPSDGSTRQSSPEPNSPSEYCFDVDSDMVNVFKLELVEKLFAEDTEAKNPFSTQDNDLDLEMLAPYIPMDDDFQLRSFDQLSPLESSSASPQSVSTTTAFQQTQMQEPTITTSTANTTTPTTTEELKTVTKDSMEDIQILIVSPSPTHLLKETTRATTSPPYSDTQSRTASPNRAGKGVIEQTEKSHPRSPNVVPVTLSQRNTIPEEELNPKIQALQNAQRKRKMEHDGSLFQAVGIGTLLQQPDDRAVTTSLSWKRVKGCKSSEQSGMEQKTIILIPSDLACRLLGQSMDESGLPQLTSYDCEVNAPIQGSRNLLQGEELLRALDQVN
UniProt H0VQG5: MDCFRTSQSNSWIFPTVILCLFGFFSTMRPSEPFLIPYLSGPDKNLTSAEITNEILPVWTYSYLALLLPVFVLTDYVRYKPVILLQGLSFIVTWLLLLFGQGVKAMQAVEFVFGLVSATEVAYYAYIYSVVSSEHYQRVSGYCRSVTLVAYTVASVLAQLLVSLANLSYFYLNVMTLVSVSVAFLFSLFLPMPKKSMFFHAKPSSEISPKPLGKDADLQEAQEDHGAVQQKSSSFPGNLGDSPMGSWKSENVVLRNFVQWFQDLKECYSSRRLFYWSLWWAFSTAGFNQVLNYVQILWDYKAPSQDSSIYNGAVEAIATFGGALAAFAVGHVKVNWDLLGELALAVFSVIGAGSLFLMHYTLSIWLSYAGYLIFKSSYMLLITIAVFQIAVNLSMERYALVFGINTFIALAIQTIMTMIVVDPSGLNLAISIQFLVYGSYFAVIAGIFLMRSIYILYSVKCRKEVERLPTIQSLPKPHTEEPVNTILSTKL

Biological target: HIF-1α (guinea pig (endogenous in choroidal cells)) (UniProt H0V563)
Experiment: co-IP; fresh guinea pig choroidal cells lysed in RIPA; pre-cleared with protein A and G magnetic beads; antibody to the target protein (1-5 ug) on beads, non-specific IgG as control; 4°C; washes with IP lysis buffer; SDS-PAGE and blot

- binding: binds
Substance: SLC19A3 (from UniProt H0VQG5)
